The other results are listed elsewhere or left out.
Experiments:
Test in all cases: glycan array binding signal (z-score within array); higher = stronger binding
Details in all cases: glycan notation: IUPAC condensed, linker removed
[1] = target: Neu5Ac(a2-3)Gal(b1-3)[Fuc(a1-4)]GlcNAc(b1-3)Gal(b1-3)[Fuc(a1-4)]GlcNAc
Method in brief: (§1)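 Columns mapping to the same glycan were averaged after glycan names were converted to IUPAC-condensed notation. The data come from 3228 arrays in the Consortium for Functional Glycomics database, limited to those with an available protein sequence. Binding is reported as a within-array Z-score averaged across arrays of one protein sequence and across linkers.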

[2] = target: Neu5Ac(a2-3)Gal(b1-3)[Fuc(a1-4)]GlcNAc(b1-3)Gal(b1-4)[Fuc(a1-3)]GlcNAc
Method in brief: as §1

[3] = target: Neu5Ac(a2-3)Gal(b1-3)[GlcNAc(b1-6)]GalNAc
Method in brief: as §1

[4] = target: Neu5Ac(a2-3)Gal(b1-3)[Neu5Ac(a2-6)]GalNAc
Method in brief: as §1

[5] = target: Neu5Ac(a2-3)Gal(b1-3)[Neu5Ac(a2-6)]GlcNAc(b1-3)[Fuc(a1-3)[Gal(b1-4)]GlcNAc(b1-6)]Gal(b1-4)Glc
Method in brief: as §1

[6] = target: Neu5Ac(a2-3)Gal(b1-3)]Neu5Ac(a2-3)Gal(b1-4)]GlcNAc
Method in brief: as §1

Neu5Ac(a2-3)Gal(b1-4)Glc = target: Neu5Ac(a2-3)Gal(b1-4)Glc
Method in brief: as §1

[7] = target: Neu5Ac(a2-3)Gal(b1-4)GlcNAc
Method in brief: as §1

[8] = target: Neu5Ac(a2-3)Gal(b1-4)GlcNAc(b1-2)Man
Method in brief: as §1

[9] = target: Neu5Ac(a2-3)Gal(b1-4)GlcNAc(b1-2)Man(a1-3)[GlcNAc(b1-4)][Neu5Ac(a2-3)Gal(b1-4)GlcNAc(b1-2)Man(a1-6)]Man(b1-4)GlcNAc(b1-4)GlcNAc
Method in brief: as §1

[10] = target: Neu5Ac(a2-3)Gal(b1-4)GlcNAc(b1-2)Man(a1-3)[Neu5Ac(a2-3)Gal(b1-4)GlcNAc(b1-2)Man(a1-6)]Man(b1-4)GlcNAc(b1-4)GlcNAc
Method in brief: as §1

[11] = target: Neu5Ac(a2-3)Gal(b1-4)GlcNAc(b1-2)Man(a1-3)[Neu5Ac(a2-3)Gal(b1-4)GlcNAc(b1-2)Man(a1-6)]Man(b1-4)GlcNAc(b1-4)[Fuc(a1-6)]GlcNAc
Method in brief: as §1

[12] = target: Neu5Ac(a2-3)Gal(b1-4)GlcNAc(b1-2)Man(a1-3)[Neu5Ac(a2-6)Gal(b1-4)GlcNAc(b1-2)Man(a1-6)]Man(b1-4)GlcNAc(b1-4)GlcNAc
Method in brief: as §1

[13] = target: Neu5Ac(a2-3)Gal(b1-4)GlcNAc(b1-2)[Neu5Ac(a2-3)Gal(b1-4)GlcNAc(b1-4)]Man(a1-3)[GlcNAc(b1-4)][Neu5Ac(a2-3)Gal(b1-4)GlcNAc(b1-2)[Neu5Ac(a2-3)Gal(b1-4)GlcNAc(b1-6)]Man(a1-6)]Man(b1-4)GlcNAc(b1-4)GlcNAc
Method in brief: as §1

[14] = target: Neu5Ac(a2-3)Gal(b1-4)GlcNAc(b1-2)[Neu5Ac(a2-3)Gal(b1-4)GlcNAc(b1-4)]Man(a1-3)[GlcNAc(b1-4)][Neu5Ac(a2-3)Gal(b1-4)GlcNAc(b1-4)Man(a1-6)]Man(b1-4)GlcNAc(b1-4)GlcNAc
Method in brief: as §1

[15] = target: Neu5Ac(a2-3)Gal(b1-4)GlcNAc(b1-2)[Neu5Ac(a2-3)Gal(b1-4)GlcNAc(b1-6)]Man(a1-6)[Neu5Ac(a2-3)Gal(b1-4)GlcNAc(b1-2)Man(a1-3)]Man(b1-4)GlcNAc(b1-4)GlcNAc
Method in brief: as §1

[16] = target: Neu5Ac(a2-3)Gal(b1-4)GlcNAc(b1-2)[Neu5Ac(a2-3)Gal(b1-4)GlcNAc(b1-6)]Man(a1-6)[Neu5Ac(a2-3)Gal(b1-4)GlcNAc(b1-2)Man(a1-3)][GlcNAc(b1-4)]Man(b1-4)GlcNAc(b1-4)GlcNAc
Method in brief: as §1

[17] = target: Neu5Ac(a2-3)Gal(b1-4)GlcNAc(b1-3)Gal
Method in brief: as §1

[18] = target: Neu5Ac(a2-3)Gal(b1-4)GlcNAc(b1-3)Gal(b1-3)GlcNAc
Method in brief: as §1

[19] = target: Neu5Ac(a2-3)Gal(b1-4)GlcNAc(b1-3)Gal(b1-4)GlcNAc(b1-2)Man(a1-3)[Neu5Ac(a2-3)Gal(b1-4)GlcNAc(b1-3)Gal(b1-4)GlcNAc(b1-2)Man(a1-6)]Man(b1-4)GlcNAc(b1-4)GlcNAc
Method in brief: as §1

[20] = target: Neu5Ac(a2-3)Gal(b1-4)GlcNAc(b1-3)Gal(b1-4)GlcNAc(b1-3)Gal(b1-4)GlcNAc
Method in brief: as §1

[21] = target: Neu5Ac(a2-3)Gal(b1-4)GlcNAc(b1-3)Gal(b1-4)GlcNAc(b1-3)Gal(b1-4)GlcNAc(b1-2)Man(a1-3)[Neu5Ac(a2-3)Gal(b1-4)GlcNAc(b1-3)Gal(b1-4)GlcNAc(b1-3)Gal(b1-4)GlcNAc(b1-2)Man(a1-6)]GalNAc
Method in brief: as §1

[22] = target: Neu5Ac(a2-3)Gal(b1-4)GlcNAc(b1-3)Gal(b1-4)GlcNAc(b1-3)GalNAc
Method in brief: as §1

[23] = target: Neu5Ac(a2-3)Gal(b1-4)GlcNAc(b1-3)Gal(b1-4)GlcNAc(b1-3)[Neu5Ac(a2-3)Gal(b1-4)GlcNAc(b1-3)Gal(b1-4)GlcNAc(b1-6)]GalNAc
Method in brief: as §1

[24] = target: Neu5Ac(a2-3)Gal(b1-4)GlcNAc(b1-3)Gal(b1-4)[Fuc(a1-3)]GlcNAc
Method in brief: as §1

[25] = target: Neu5Ac(a2-3)Gal(b1-4)GlcNAc(b1-3)GalNAc
Method in brief: as §1

[26] = target: Neu5Ac(a2-3)Gal(b1-4)GlcNAc(b1-3)[Neu5Ac(a2-3)Gal(b1-4)GlcNAc(b1-6)]GalNAc
Method in brief: as §1

[27] = target: Neu5Ac(a2-3)Gal(b1-4)GlcNAc(b1-6)GalNAc
Method in brief: as §1

[28] = target: Neu5Ac(a2-3)Gal(b1-4)GlcNAc(b1-6)[Gal(b1-3)]GalNAc
Method in brief: as §1

[29] = target: Neu5Ac(a2-3)Gal(b1-4)GlcNAc(b1-6)[Neu5Ac(a2-3)Gal(b1-3)]GalNAc
Method in brief: as §1

[30] = target: Neu5Ac(a2-3)Gal(b1-4)GlcNAc6S
Method in brief: as §1

[31] = target: Neu5Ac(a2-3)Gal(b1-4)[Fuc(a1-3)]GlcNAc
Method in brief: as §1

[32] = target: Neu5Ac(a2-3)Gal(b1-4)[Fuc(a1-3)]GlcNAc(b1-2)Man
Method in brief: as §1

[33] = target: Neu5Ac(a2-3)Gal(b1-4)[Fuc(a1-3)]GlcNAc(b1-3)Gal
Method in brief: as §1

[34] = target: Neu5Ac(a2-3)Gal(b1-4)[Fuc(a1-3)]GlcNAc(b1-3)Gal(b1-4)GlcNAc
Method in brief: as §1

[35] = target: Neu5Ac(a2-3)Gal(b1-4)[Fuc(a1-3)]GlcNAc(b1-3)Gal(b1-4)[Fuc(a1-3)]GlcNAc(b1-3)Gal(b1-4)[Fuc(a1-3)]GlcNAc
Method in brief: as §1

[36] = target: Neu5Ac(a2-3)Gal(b1-4)[Fuc(a1-3)]GlcNAc(b1-3)GalNAc
Method in brief: as §1

[37] = target: Neu5Ac(a2-3)Gal(b1-4)[Fuc(a1-3)]GlcNAc(b1-6)[Gal(b1-3)]GalNAc
Method in brief: as §1

B1: PX14351B-bth-512-36-512 (Bacteroides thetaiotaomicron) (protein)
chain: ASETQQWKTLEDTRSALMGVYGLTRAALADNNTHWICGDLRKGDFTVYKRSDLQAVSDNELNKPYDLLKKVSNWRRFYAVINAASVFMEKAPRTVELDRSYSEQNLKYDIAQVRALRAFAYFYMVRIWGDVPLVTYSYDNGTFPSMPRTDAQTVLSYAKAELLTAIEDLPYQYGTQTNLYYGSYGAQWQGKLFNKLSAYSVLAHICAWQGNYAEAETYSAFIIDHASEINAKYTSIADLTSETGLFYSNASVKGSRILGFNFAHNDNEATQSGHLEQLTLAYPLVQKSYPEIYISKDSLFSIFTNFDDLRFGIIDTIKYSSYYVQNLNEETPVFSKIKIIQDGSAKDNDFGVFGSSIVFTRLEDITLLRAEALCALNRSTEAVSYLNMIRTNRGLREVSFKKDFGNNRESLIAEIFEERRRELMGEGWRWYDLVRRQKLMKDNEAFLRLISSGGIYWPVSEDIITANSQIEQNEFWK
- glycan array binding signal (z-score) [1]: -0.274
- glycan array binding signal (z-score) [2]: -0.172
- glycan array binding signal (z-score) [3]: -0.16
- glycan array binding signal (z-score) [4]: -0.263
- glycan array binding signal (z-score) [5]: -0.369
- glycan array binding signal (z-score) [6]: -0.36
- glycan array binding signal (z-score) (Neu5Ac(a2-3)Gal(b1-4)Glc): -0.065
- glycan array binding signal (z-score) [7]: -0.312
- glycan array binding signal (z-score) [8]: -0.275
- glycan array binding signal (z-score) [9]: -0.214
- glycan array binding signal (z-score) [10]: 0.344
- glycan array binding signal (z-score) [11]: -0.243
- glycan array binding signal (z-score) [12]: -0.254
- glycan array binding signal (z-score) [13]: -0.24
- glycan array binding signal (z-score) [14]: -0.26
- glycan array binding signal (z-score) [15]: -0.204
- glycan array binding signal (z-score) [16]: -0.341
- glycan array binding signal (z-score) [17]: -0.287
- glycan array binding signal (z-score) [18]: -0.352
- glycan array binding signal (z-score) [19]: -0.19
- glycan array binding signal (z-score) [20]: 0.041
- glycan array binding signal (z-score) [21]: -0.12
- glycan array binding signal (z-score) [22]: 0.553
- glycan array binding signal (z-score) [23]: -0.084
- glycan array binding signal (z-score) [24]: -0.061
- glycan array binding signal (z-score) [25]: -0.19
- glycan array binding signal (z-score) [26]: -0.355
- glycan array binding signal (z-score) [27]: -0.12
- glycan array binding signal (z-score) [28]: -0.023
- glycan array binding signal (z-score) [29]: -0.116
- glycan array binding signal (z-score) [30]: -0.307
- glycan array binding signal (z-score) [31]: -0.359
- glycan array binding signal (z-score) [32]: -0.201
- glycan array binding signal (z-score) [33]: -0.219
- glycan array binding signal (z-score) [34]: -0.142
- glycan array binding signal (z-score) [35]: -0.084
- glycan array binding signal (z-score) [36]: 0.129
- glycan array binding signal (z-score) [37]: 0.021

From the supplement of paper PMC8728848
